# Results are given in words; binding and its absence hold for the method and conditions named. In cells and extracts the contact can be indirect. These calls come from enrichment with a bait or labelling near it, and not all partners need be listed.
# Sequences of proteins named here, by UniProt entry; tags and fusion partners are left off. A change or cut given only in a name is not applied to a line headed by its entry.
# UniProt P51149: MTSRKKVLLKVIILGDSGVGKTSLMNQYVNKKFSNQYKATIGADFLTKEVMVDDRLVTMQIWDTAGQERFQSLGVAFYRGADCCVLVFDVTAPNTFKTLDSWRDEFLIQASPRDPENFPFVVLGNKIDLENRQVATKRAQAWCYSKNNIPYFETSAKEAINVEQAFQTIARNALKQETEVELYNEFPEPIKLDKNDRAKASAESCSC
# UniProt Q9NVJ2: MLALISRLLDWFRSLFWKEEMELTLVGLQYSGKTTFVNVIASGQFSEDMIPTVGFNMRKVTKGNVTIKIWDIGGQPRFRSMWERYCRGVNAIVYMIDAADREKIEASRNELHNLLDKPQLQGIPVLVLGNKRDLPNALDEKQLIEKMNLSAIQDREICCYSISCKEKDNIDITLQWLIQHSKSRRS
# Biological target: 2 × HA-tagged RAB7A T22N mutant (UniProt P51149)
# Experiment: affinity purification with mass spectrometry; TBC1D15/17 DKO HCT116 cells with mCherry-Parkin and 2HA-RAB7A (T22N), DMSO or valinomycin 3 hr; cells cross-linked with 5 mM DTBP; lysis in MCLB buffer (0.5% NP40); anti-HA beads overnight at 4°C, HA peptide elution; CompPASS analysis
substance,measurement,value
ARL8B (from UniProt Q9NVJ2 1-186),binding,binds
